Hit rate of the full screen: of about 400,000 compounds, about 5,500 (1.4%) were called active. Inconclusive means that the source gave no clear call. Such entries were picked first, then a sample of the others. Calls come from the whole dose curve; as a rule, active = well fitted cell-killing curve with a large enough effect; inconclusive = small, poorly fitted or top-dose-only effect, or effect the other way; inactive = flat fitted curve, though single readings scatter. A potency beside an inconclusive call is a rough fit, not a confirmed value.
Experiment: qHTS assay for MDR1-selective chemotherapeutics: Primary screen using the parental adenocarcinoma cell KB-3-1; note: nearly all actives have a fitted effect of over 60% in size
Settings: KB-3-1 viability, CellTiter-Glo ATP luminescence, 72 h; activity change, negative = cytotoxic: at 46.1 µM (top of the series)
Method in brief: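 Luminescent ATP read-out (CellTiter-Glo) measures survival of drug-naive KB-3-1 cells after 72 h compound exposure at 37 °C. Titration series was screened from lowest to highest concentration, with DMSO vehicle plates as background controls.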
% is set by controls: 0 for no effect and ±100 for the full control effect; potency is the fitted concentration of half-maximal effect.

| SMILES | Potency | activity change, negative = cytotoxic |
| --- | --- | --- |
| CCN(CC)CCn1c2ccccc2c2cnc(N=CN(C)C)c(C#N)c21 | inconclusive: 16.4 µM [cytotoxic, single point] |  |
| CCc1ccc(C(=O)COC(=O)c2cc([N+](=O)[O-])ccc2N2CCOCC2)cc1 | inconclusive: 18.4 µM [cytotoxic, single point] |  |
| FC(F)Sc1ccc(N=C2NN=C(c3ccc4c(c3)OCCO4)CS2)cc1 | inconclusive: 35.5 µM [cytotoxic, single point] |  |
| COC(=O)/C=C/c1ccc2c(c1)S(=O)(=O)N(C1CCCC1)[C@H]2CC(=O)OC |  | inactive: -4.73% |
| CC[n+]1c(/C=C/C=C/N(C(C)=O)c2ccccc2)sc2cc(OC)ccc21 | active: 3.26 µM |  |
| Cc1nnc2ccc(-c3cccc(NS(=O)(=O)c4ccccc4Cl)c3)nn12 |  | inconclusive: -46% [cytotoxic] |
| Cc1cc(C)c2c(N)c(C(=O)Nc3cccc(C)c3C)sc2n1 | inconclusive: 20.6 µM [cytotoxic, single point] |  |
| O=C(NCCCn1ccnc1)/C(=C/c1ccco1)NC(=O)c1ccco1 | inconclusive: 25.9 µM [rising, single point] |  |
| COc1ccc(-n2ccc(-c3nn(-c4cccc(C(F)(F)F)c4)ccc3=O)n2)cc1 | inconclusive: 29.1 µM [cytotoxic, single point] |  |
| O=C(c1ccc(-c2cc(O)c3ncccc3c2)cc1)N1CCNCC1 | inconclusive: 29.1 µM [cytotoxic, single point] |  |
| CCOc1ccc(C(=O)NC(=S)Nc2ccc(N3CCOCC3)c(Cl)c2)cc1[N+](=O)[O-] | inconclusive: 18.4 µM [cytotoxic, single point] |  |
| C=C1C(=O)C=C[C@]2(C)C[C@@H]3OC(=O)[C@](C)(O)[C@H]3C[C@@H]12 | inconclusive: 23.1 µM [cytotoxic, partial curve, poor fit] |  |
| COc1ccc(CNC(=O)CN(Cc2ccc(F)cc2)C(=O)CCC(=O)Nc2nccs2)cc1 | inconclusive: 3.26 µM [rising, partial curve, poor fit] |  |
| CC(=O)Nc1ccc(Sc2ccccc2C(=O)Nc2ccc(F)cc2)cn1 |  | inactive: 10.9% |
| CCN1C(=O)[C@H]2[C@@H](c3ccc(-c4ccc(Cl)c(Cl)c4)c(OC)c3)N3CCCC[C@@]3(C(=O)OC)[C@H]2C1=O | active: 20.6 µM |  |
| COc1ccc(CCNC(=O)c2cc3c(=O)n4ccccc4nc3n(CC3CCCO3)c2=N)cc1OC (stereo not drawn) |  | inactive: 0% |
| O=C(CN1C(=O)S/C(=C\c2ccccc2Cl)C1=O)NC1C=CS(=O)(=O)C1 (stereo not drawn) |  | inactive: 0% |
| CCOC(=O)C1(Cc2ccccc2)CCN(Cc2cccc(OC)c2O)CC1 | inconclusive: 29.1 µM [cytotoxic, single point] |  |

Full records as entered above.
Cc1nnc2ccc(-c3cccc(NS(=O)(=O)c4ccccc4Cl)c3)nn12 as listed: activity change, negative = cytotoxic: inconclusive: -46% [cytotoxic]
CCOc1ccc(C(=O)NC(=S)Nc2ccc(N3CCOCC3)c(Cl)c2)cc1[N+](=O)[O-] as listed: Potency: inconclusive: 18.4 µM [cytotoxic, single point]

Reference: PubChem BioAssay AID1347075 (National Center for Advancing Translational Sciences (NCATS), 2019)
